Data taken from patent US20170296524A1.
Results are given in words; binding and its absence hold for the method and conditions named. For some of these results: Binding seen in cells or lysates may run through a third protein. Some results given as binding are weak or reduced against the parent protein; the word gives no strength. Where a sequence is shown, tags or fusion partners need not be part of it. Blank lines part the entries; values can stand above or below the binder they belong to.

Assays:
[1] = molecular target: Cereblon (CRBN), human, wild type, without tag (endogenous or expressed from plasmid) (human) (UniProt Q96SW2); assay: GST pull-down in MM1.S whole cell lysate, Western blot for CRBN
[2] = molecular target: Cereblon (CRBN), human, wild type, without tag (endogenous or expressed from plasmid) (human) (UniProt Q96SW2); assay: GST pull-down of fragments in MM1S whole cell extracts, immunoblot
[3] = molecular target: Cereblon (CRBN), human, wild type, without tag (endogenous or expressed from plasmid) (human) (UniProt Q96SW2); assay: GST pull-down with the C-terminal fragment from lysates of CRBN-/- HEK 293T cells re-expressing CRBN
[4] = molecular target: T1, MCT1 (monocarboxylate transporter 1), endogenous (human), P53985; assay: co-immunoprecipitation; settings: remark: other sources report otherwise
T1 chain: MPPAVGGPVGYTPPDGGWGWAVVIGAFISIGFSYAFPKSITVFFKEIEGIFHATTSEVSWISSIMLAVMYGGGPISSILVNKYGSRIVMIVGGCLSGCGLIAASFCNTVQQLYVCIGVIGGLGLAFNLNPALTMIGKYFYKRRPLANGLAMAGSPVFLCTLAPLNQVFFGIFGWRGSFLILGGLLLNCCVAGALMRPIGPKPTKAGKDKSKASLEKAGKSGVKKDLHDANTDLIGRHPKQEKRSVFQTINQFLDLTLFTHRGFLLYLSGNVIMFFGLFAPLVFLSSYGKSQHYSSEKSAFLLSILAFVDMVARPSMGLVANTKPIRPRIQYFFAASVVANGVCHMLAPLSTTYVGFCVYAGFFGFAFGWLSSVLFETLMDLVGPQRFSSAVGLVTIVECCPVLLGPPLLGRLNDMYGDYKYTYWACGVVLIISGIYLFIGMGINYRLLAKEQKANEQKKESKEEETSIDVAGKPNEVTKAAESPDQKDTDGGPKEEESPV

[5] = molecular target: T1, MCT1 (monocarboxylate transporter 1), …; assay: co-immunoprecipitation and pull-downs (heading of FIG. 2); settings: remark: other sources report otherwise
[6] = molecular target: T1, MCT1 (monocarboxylate transporter 1), …; assay: immunoprecipitation with CRBN-specific antibody from HEK 293T lysate, Western blot; settings: remark: other sources report otherwise
[7] = molecular target: T2, in vitro-translated, 35S-labeled MCT1 (human), P53985; assay: pull-down of recombinant GST-CRBN with in vitro-translated 35S-labeled protein, autoradiography (FIG. 16B); settings: remark: other sources report otherwise
T2 chain: T1 chain

[8] = molecular target: T1, MCT1 (monocarboxylate transporter 1), …; assay: Streptavidin-bead precipitation of Strep-Flag tagged CRBN from HEK 293T cells; settings: remark: other sources report otherwise
[9] = molecular target: T3, Cereblon (CRBN), human, wild type, without tag (endogenous or expressed from plasmid) (human), Q96SW2; assay: FLAG immunoprecipitation from HEK293T cells, immunoblot (FIG. 13G); settings: remark: other sources report otherwise
T3 chain: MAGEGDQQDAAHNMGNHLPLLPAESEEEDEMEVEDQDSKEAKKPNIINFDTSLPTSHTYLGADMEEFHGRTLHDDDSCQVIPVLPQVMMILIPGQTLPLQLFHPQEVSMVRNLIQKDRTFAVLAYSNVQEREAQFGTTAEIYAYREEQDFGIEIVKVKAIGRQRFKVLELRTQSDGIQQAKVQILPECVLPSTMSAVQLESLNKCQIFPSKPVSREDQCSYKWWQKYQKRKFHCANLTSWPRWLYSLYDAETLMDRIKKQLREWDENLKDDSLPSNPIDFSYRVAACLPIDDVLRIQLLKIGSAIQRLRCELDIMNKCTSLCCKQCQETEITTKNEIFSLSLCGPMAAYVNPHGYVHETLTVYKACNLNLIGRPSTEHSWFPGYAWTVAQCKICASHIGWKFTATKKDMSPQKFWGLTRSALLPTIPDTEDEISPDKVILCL

[10] = molecular target: T3, Cereblon (CRBN), human, wild type, …; assay: heading of FIG. 16: FLAG immunoprecipitation from HEK293T cells (16A) and GST-CRBN pull-down (16B); settings: remark: other sources report otherwise

- binding [1]: binds
- binding [2]: binds
- binding [3]: binds
B1: GST-tagged C-terminal intracellular domain of MCT1 (amino acids 444-500) (protein, human, UniProt P53985 444-500, looked up, not shown: a dimerising Fc or GST)
chain: NYRLLAKEQKANEQKKESKEEETSIDVAGKPNEVTKAAESPDQKDTDGGPKEEESPV

- binding [7]: binds
B3: recombinant GST-CRBN (purified GST-Cereblon), Q96SW2 1-442 (protein, human, UniProt Q96SW2 1-442, looked up, not shown: a dimerising Fc or GST)
chain: T3 chain
modifications: here or on the partner: 35S-labeled

- binding [8]: binds
B4: Strep-Flag tagged CRBN (CRBN-SF), Q96SW2 1-442 (protein, human, UniProt Q96SW2 1-442, looked up, not shown: small tags and cut ends)
chain: T3 chain

Continued, binder first:

B2: Cereblon (CRBN), human, wild type, without tag (endogenous or expressed from plasmid), Q96SW2 1-442 (protein, UniProt Q96SW2 1-442, looked up)
chain: T3 chain
- binding [4]: binds
- binding [5]: binds
- binding [6]: binds

B5: FLAG-MCT1, P53985 1-500 (protein, human, UniProt P53985 1-500, looked up, not shown: small tags and cut ends)
chain: T1 chain
- binding [9]: binds
- binding [10]: binds
